# Results reported in PubChem BioAssay AID504444 (National Center for Advancing Translational Sciences (NCATS), 2011).
# Among all 360,000 compounds or so, about 7,500 (2.1%) were called active. The shares of active, inactive and inconclusive entries below differ from those in the screen. Calls follow the shape of the dose curve; as a rule, active = well fitted inhibition curve with a large enough effect; inconclusive = small, poorly fitted or top-dose-only effect, or effect the other way; inactive = flat fitted curve, though single readings scatter. Potencies of inconclusive entries are doubtful fits and often do not repeat.
# Experiment: Nrf2 qHTS screen for inhibitors; also: nearly all actives have a fitted effect of over 60% in size
# Settings: A549 ARE-Fluc reporter, luciferase luminescence, 18-24 h; series mostly up to 46 µM
# Outline: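 Concentration-response testing used A549 ARE_Fluc cells at 5000 cells/well. Following an 18-24 h compound incubation, viability was read by fluorescence (Ex 405/Em 525) and luciferase output by luminescence.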
# Potency is read from the fitted curve at half-maximal effect.
row,SMILES,Potency
1,COc1cccc(Nc2ccc3cc(S(=O)(=O)N4CCC(C)CC4)ccc3n2)c1,"inconclusive: 29.1 µM [falling, partial curve, poor fit]"
2,CCCCOC(=O)Nc1ccc2c(C)cc(=O)oc2c1,"inconclusive: 5.8 µM [activator, partial curve]"
3,Cc1cccc(-c2cc3nc(-c4ccccc4)cc(=O)n3[nH]2)c1,"inconclusive: 1.03 µM [activator, full curve]"
4,CCN(CC(=O)Nc1ccccc1C(F)(F)F)C(=O)CCc1nc2ccccc2c(=O)[nH]1,"inconclusive: 6.51 µM [falling, partial curve, poor fit]"
5,COC(OC)c1ccnc(-c2ccc(OC(=O)c3ccccc3)cc2)n1,"inconclusive: 18.4 µM [activator, single point]"
6,Cc1cc(N2CCC(C(=O)Nc3ccc(F)cc3)CC2)nc(-c2ccccc2)n1,"inconclusive: 14.6 µM [falling, partial curve]"
7,CN(Cc1ccc(F)cc1)C(=O)c1cc(COc2ccc(-n3cncn3)cc2)on1,"inconclusive: 25.9 µM [falling, single point]"
8,CC1(C)CC(=O)C2=C(C1)N1C(=C(C#N)C2c2ccccc2Cl)N=C(N)c2ccccc21 (stereo not drawn),"inconclusive: 25.9 µM [falling, partial curve, poor fit]"
9,O=C(Nc1ccccc1)Nc1cccc(Cl)c1Cl,"inconclusive: 3.66 µM [activator, partial curve, poor fit]"
10,CCOC(=O)c1cnc(-n2cc(C)cn2)nc1NCc1ccc2c(c1)OCO2,"inconclusive: 29.1 µM [falling, single point]"
11,Cc1ccc2c(c1)C(Cc1ccccc1F)C(=O)N2 (stereo not drawn),"inconclusive: 1.03 µM [activator, partial curve, poor fit]"
12,COCC1CCN(C(=O)c2ccc3oc(CCCc4ccccc4)nc3c2)C1 (stereo not drawn),inactive
13,COc1ccc2nc(Nc3nc(CSc4nc5ccccc5[nH]4)cc(=O)[nH]3)nc(C)c2c1,"inconclusive: 23.1 µM [activator, single point]"
14,CC(C)Oc1ccccc1C1C=C(C(=O)O)Nc2ncnn21 (stereo not drawn),inactive
15,CC1CCC(NC(=O)c2ccc3c(c2)OCO3)CC1 (stereo not drawn),"inconclusive: 0.731 µM [activator, partial curve]"
16,Cc1ccc(C(C)(C)C)cc1S(=O)(=O)Nc1ncnc2sccc12,"inconclusive: 20.6 µM [falling, single point]"
17,CC(=O)Nc1ccc(SC[C@H](C)CN2CC[C@H](C(C)(C)C)CCC2=O)cc1,inactive
18,COc1ccc(OC)c(-c2nnc3n2N=C(c2ccc(OC(F)F)c(OCC4CC4)c2)CS3)c1,"inconclusive: 29.1 µM [falling, single point]"

# An excerpt taken from the entries so far, for reference:
row,SMILES,Potency
10,CCOC(=O)c1cnc(-n2cc(C)cn2)nc1NCc1ccc2c(c1)OCO2,"inconclusive: 29.1 µM [falling, single point]"
11,Cc1ccc2c(c1)C(Cc1ccccc1F)C(=O)N2 (stereo not drawn),"inconclusive: 1.03 µM [activator, partial curve, poor fit]"
